# Measurements from patent publication US20070122398A1, “Encapsulated hydrophilic compounds” (priority 2004, published 2007).
# Experiment: recovery of flavor from capsules: yeast alone versus yeast with matrix component (maltodextrin 18DE), ethanol extraction and GC-MS
# Details: Yeast 1 or Yeast 2 without matrix component, FIG. 1
row,SMILES,absorption of flavor in yeast cell alone
1,CC(=O)C(C)O (racemic) [(+−)-3-HYDROXY-2-BUTANONE],not well absorbed
2,CC1OCCC1S (racemic) [(+−)-TETRAHYDRO-2-METHYL-3-FURANTHIOL],not well absorbed
3,CC(=O)c1cnccn1 [1-(PYRAZINYL)-1-ETHANONE],not well absorbed
4,CC(=O)Sc1ccoc1C [S-(2-METHYL-3-FURYL) ETHANETHIOATE],not well absorbed
